# Article PMC5913607
# Protein sequences, listed by entry. Tags and fused reporters are not part of them.
# UniProt Q39255: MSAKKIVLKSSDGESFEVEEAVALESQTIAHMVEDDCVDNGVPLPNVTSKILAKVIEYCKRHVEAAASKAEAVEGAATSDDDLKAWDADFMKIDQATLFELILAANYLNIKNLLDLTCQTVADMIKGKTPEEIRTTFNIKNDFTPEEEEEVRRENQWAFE
# Results are given in words; binding and its absence hold for the method and conditions named. For part of these data: In cells and extracts the contact can be indirect. Some binding calls cover weakened binding; strength is not graded here. Tags and fused reporters may be left off the sequences shown.
# T1: His-D3 (full-length Oryza sativa D3) (Oryza sativa) (UniProt Q5VMP0)
# T1 sequence: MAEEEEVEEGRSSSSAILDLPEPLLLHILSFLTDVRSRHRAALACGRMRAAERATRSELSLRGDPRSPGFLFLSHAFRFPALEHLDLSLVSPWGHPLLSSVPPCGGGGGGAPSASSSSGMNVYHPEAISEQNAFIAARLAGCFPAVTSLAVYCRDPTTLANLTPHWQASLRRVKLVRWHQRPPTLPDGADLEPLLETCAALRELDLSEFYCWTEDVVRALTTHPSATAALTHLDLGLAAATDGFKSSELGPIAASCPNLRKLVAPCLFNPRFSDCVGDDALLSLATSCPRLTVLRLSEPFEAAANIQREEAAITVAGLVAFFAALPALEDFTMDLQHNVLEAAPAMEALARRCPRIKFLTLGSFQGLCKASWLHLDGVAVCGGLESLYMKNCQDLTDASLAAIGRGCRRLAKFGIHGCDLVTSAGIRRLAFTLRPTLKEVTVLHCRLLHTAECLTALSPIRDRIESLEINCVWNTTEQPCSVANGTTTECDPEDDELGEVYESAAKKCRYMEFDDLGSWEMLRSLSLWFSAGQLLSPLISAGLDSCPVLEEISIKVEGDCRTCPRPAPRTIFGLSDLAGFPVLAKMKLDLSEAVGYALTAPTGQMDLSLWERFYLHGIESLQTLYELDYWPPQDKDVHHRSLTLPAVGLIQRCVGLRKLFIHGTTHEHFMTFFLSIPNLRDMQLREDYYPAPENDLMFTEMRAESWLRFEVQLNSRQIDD
# T2: His-MAX2 (full-length Arabidopsis thaliana MAX2) (Arabidopsis thaliana) (UniProt Q9SIM9)
# T2 sequence: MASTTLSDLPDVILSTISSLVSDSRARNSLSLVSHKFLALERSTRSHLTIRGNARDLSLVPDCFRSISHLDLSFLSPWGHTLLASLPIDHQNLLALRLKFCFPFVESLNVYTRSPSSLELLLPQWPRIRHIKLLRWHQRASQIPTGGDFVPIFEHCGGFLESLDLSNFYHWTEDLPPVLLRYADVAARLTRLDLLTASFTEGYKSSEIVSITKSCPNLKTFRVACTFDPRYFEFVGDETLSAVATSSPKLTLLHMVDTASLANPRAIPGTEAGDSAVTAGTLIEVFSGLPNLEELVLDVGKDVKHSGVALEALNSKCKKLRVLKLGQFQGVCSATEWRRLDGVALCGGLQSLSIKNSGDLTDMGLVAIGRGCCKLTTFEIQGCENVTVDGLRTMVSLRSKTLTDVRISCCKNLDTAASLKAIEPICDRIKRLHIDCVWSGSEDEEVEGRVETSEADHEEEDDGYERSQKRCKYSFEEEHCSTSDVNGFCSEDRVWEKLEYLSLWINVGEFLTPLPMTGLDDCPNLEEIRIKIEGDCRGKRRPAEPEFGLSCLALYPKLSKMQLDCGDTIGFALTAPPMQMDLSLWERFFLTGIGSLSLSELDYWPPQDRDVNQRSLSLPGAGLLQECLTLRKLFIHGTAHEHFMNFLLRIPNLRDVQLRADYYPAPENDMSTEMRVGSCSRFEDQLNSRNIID
# T3: GFP–MAX2 (Arabidopsis thaliana), Q9SIM9
# T3 chain: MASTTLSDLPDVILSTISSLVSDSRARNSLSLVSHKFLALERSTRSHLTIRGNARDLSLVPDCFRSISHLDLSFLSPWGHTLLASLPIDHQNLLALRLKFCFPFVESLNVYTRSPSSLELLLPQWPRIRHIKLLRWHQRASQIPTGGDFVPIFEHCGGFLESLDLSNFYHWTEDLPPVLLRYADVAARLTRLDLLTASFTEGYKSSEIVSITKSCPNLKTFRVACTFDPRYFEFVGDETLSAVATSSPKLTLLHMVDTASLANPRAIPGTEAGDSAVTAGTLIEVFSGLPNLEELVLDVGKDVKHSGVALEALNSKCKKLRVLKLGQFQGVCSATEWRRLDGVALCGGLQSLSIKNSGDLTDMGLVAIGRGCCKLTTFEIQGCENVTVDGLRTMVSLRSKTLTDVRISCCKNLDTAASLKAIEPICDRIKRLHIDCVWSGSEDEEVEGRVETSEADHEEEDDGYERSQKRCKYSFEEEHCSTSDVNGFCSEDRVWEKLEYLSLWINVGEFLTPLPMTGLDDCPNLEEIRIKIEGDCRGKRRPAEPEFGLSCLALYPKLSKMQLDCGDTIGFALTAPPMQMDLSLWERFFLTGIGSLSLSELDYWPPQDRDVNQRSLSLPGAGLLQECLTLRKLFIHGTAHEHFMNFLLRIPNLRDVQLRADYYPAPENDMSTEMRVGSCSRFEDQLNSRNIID
# Tests used:
# [1] = target: T1, His-D3 (full-length Oryza sativa D3) (Oryza sativa); test: co-purification; His6-tagged F-box protein co-expressed with ASK1 in sf9 cells; Ni-NTA, then HiTrap Q and Superdex 200 10/300; 20 mM MES pH 6.5, 150 mM NaCl, 5 mM DTT
# [2] = target: T2, His-MAX2 (full-length Arabidopsis thaliana MAX2) (Arabidopsis thaliana); test: as above
# [3] = target: T3, GFP–MAX2 (Arabidopsis thaliana), Q9SIM9; test: co-IP; Arabidopsis protoplasts (Col-0 or smxl6 smxl7 smxl8 triple mutant) transformed with HA-AtD14 and GFP–MAX2, pre-treated with 100 uM rac-GR24 for 1 h; IP with anti-GFP agarose in the presence or absence of 100 uM rac-GR24 at 4 °C; anti-HA blot; settings: remark: other sources report otherwise
binding [1],binding [2],binding [3],Molecule
binds,binds,–,ASK1 (from UniProt Q39255 1-160)
–,–,binds,"HA-AtD14, Q9SQR3 1-267 (protein) MSQHNILEALNVRVVGTGDRILFLAHGFGTDQSAWHLILPYFTQNYRVVLYDLVCAGSVNPDYFDFNRYTTLDPYVDDLLNIVDSLGIQNCAYVGHSVSAMIGIIASIRRPELFSKLILIGFSPRFLNDEDYHGGFEEGEIEKVFSAMEANYEAWVHGFAPLAVGADVPAAVREFSRTLFNMRPDISLFVSRTVFNSDLRGVLGLVRVPTCVIQTAKDVSVPASVAEYLRSHLGGDTTVETLKTEGHLPQLSAPAQLAQFLRRALPR"
